Data as given in PubChem BioAssay (NCATS).
The shares of active, inactive and inconclusive entries below differ from those in the screen. A potency beside an inconclusive call is a rough fit, not a confirmed value. Active and inactive are the calls of the source. Calls follow the shape of the dose curve; as a rule, active = well fitted curve in the direction sought with a large enough effect; inconclusive = small, poorly fitted or top-dose-only effect, or another doubt; inactive = no such curve, though single readings can be large; an effect the other way counts as inactive or inconclusive.

Assays:
[1] = Quantitative High-Throughput drug screen in 47 multiple myeloma cell lines against the NCATS MIPE library collection: JIM3_ECACC cell viability assay (AID 1918963; also: nearly all actives have a fitted effect of over 35% in size); settings: JIM3 myeloma viability, CellTiter-Glo ATP, 48 h; series mostly up to 45.8 µM
How it was run: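 CellTiter-Glo luminescence (ATP) after 48 h compound exposure, 37C/5% CO2; 500 cells/well; MIPE 4.0 approved/investigational drugs pinned in; DMSO = 100%, media only = 0% viability.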

[2] = Quantitative High-Throughput drug screen in 47 multiple myeloma cell lines against the NCATS MIPE library collection: JIM1_ECACC cell viability assay (AID 1918964); settings: JIM1 myeloma viability, CellTiter-Glo ATP luminescence, 48 h; viability (% of DMSO): at 45.8 µM (top of the series)
How it was run: (§1)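 Relative luminescence from CellTiter-Glo served as the viability signal, referenced to DMSO-treated (100%) and cell-free medium (0%) controls. Treatment lasted 48 hours at 37C with 500 cells per well.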

[3] = Quantitative High-Throughput drug screen in 47 multiple myeloma cell lines against the NCATS MIPE library collection: H1112_PLB cell viability assay (AID 1918967; also: nearly all actives have a fitted effect of over 30% in size); settings: H1112 myeloma cells viability, ATP luminescence, 48 h; viability: at 45.8 µM (top of the series)
How it was run: as §1

[4] = Quantitative High-Throughput drug screen in 47 multiple myeloma cell lines against the NCATS MIPE library collection: Karpas25_ECACC cell viability assay (AID 1918968; also: nearly all actives have a fitted effect of over 35% in size); settings: Karpas25 myeloma viability, CellTiter-Glo ATP, 48 h; viability (% of control): at 45.8 µM (top of the series)
How it was run: as §1

[5] = Quantitative High-Throughput drug screen in 47 multiple myeloma cell lines against the NCATS MIPE library collection: KMS27_JCRB cell viability assay (AID 1918970); settings: KMS27 myeloma cells, CellTiter-Glo ATP viability, 48 h; viability (% of DMSO): at 45.8 µM (top of the series); also: nearly all actives have a fitted effect of over 30% in size
How it was run: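 Each line is seeded at 500 cells per well and treated with library compounds for 48 hours under 37 °C, 5% CO2. CellTiter-Glo is then added for 5 min at room temperature before median relative luminescence is recorded.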

[6] = Quantitative High-Throughput drug screen in 47 multiple myeloma cell lines against the NCATS MIPE library collection: KMS12BM_JCRB cell viability assay (AID 1918971); also: nearly all actives have a fitted effect of over 35% in size
How it was run: (§2)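 We plated 500 myeloma cells per well, pinned in MIPE 4.0 compounds, and incubated for 48 hours at 37C. ATP was then quantified with CellTiter-Glo, with DMSO and media-only wells defining 100% and 0%.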

[7] = Quantitative High-Throughput drug screen in 47 multiple myeloma cell lines against the NCATS MIPE library collection: KMS20_JCRB cell viability assay (AID 1918973); settings: CellTiter-Glo ATP, 48 h; viability (% of DMSO): at 45.8 µM (top of the series); also: nearly all actives have a fitted effect of over 45% in size
How it was run: as §1

[8] = Quantitative High-Throughput drug screen in 47 multiple myeloma cell lines against the NCATS MIPE library collection: KMS21BM_JCRB cell viability assay (AID 1918974); settings: ATP luminescence, 48 h; viability: at 45.8 µM (top of the series) unless noted
How it was run: as §1

[9] = Quantitative High-Throughput drug screen in 47 multiple myeloma cell lines against the NCATS MIPE library collection: KMS26_JCRB cell viability assay (AID 1918975); settings: KMS26 myeloma cells viability, CellTiter-Glo ATP, 48 h; viability (% of DMSO): at 45.8 µM (top of the series); also: nearly all actives have a fitted effect of over 45% in size
How it was run: as §2

[10] = Quantitative High-Throughput drug screen in 47 multiple myeloma cell lines against the NCATS MIPE library collection: MMM1_PLB cell viability assay (AID 1918976); also: nearly all actives have a fitted effect of over 35% in size
How it was run: (§3)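 Myeloma cells (500/well) treated with MIPE 4.0 compounds for 48 h at 37 °C, 5% CO2. Viability read as ATP via CellTiter-Glo luminescence after 5 min at RT; DMSO-only wells = 100%, media-only = 0% viability.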

[11] = Quantitative High-Throughput drug screen in 47 multiple myeloma cell lines against the NCATS MIPE library collection: MOLP8_DSMZ cell viability assay (AID 1918977); settings: MOLP8 myeloma viability, CellTiter-Glo ATP luminescence, 48 h; viability (% of control): at 45.8 µM (top of the series); also: nearly all actives have a fitted effect of over 45% in size
How it was run: as §3

[12] = Quantitative High-Throughput drug screen in 47 multiple myeloma cell lines against the NCATS MIPE library collection: OCIMY1_PLB cell viability assay (AID 1918979); also: nearly all actives have a fitted effect of over 35% in size
How it was run: as §3

[13] = Quantitative High-Throughput drug screen in 47 multiple myeloma cell lines against the NCATS MIPE library collection: MM1S_ATCC cell viability assay (AID 1918980); also: nearly all actives have a fitted effect of over 45% in size
How it was run: as §3

[14] = Quantitative High-Throughput drug screen in 47 multiple myeloma cell lines against the NCATS MIPE library collection: MM1R_ATCC cell viability assay (AID 1918981); also: nearly all actives have a fitted effect of over 35% in size
How it was run: as §3

[15] = Quantitative High-Throughput drug screen in 47 multiple myeloma cell lines against the NCATS MIPE library collection: KMS28PE_JCRB cell viability assay (AID 1918983); also: nearly all actives have a fitted effect of over 35% in size
How it was run: as §3

[16] = Quantitative High-Throughput drug screen in 47 multiple myeloma cell lines against the NCATS MIPE library collection: JJN3_DSMZ cell viability assay (AID 1918966; also: nearly all actives have a fitted effect of over 50% in size); settings: JJN3 myeloma cells viability, CellTiter-Glo ATP, 48 h; series mostly up to 45.8 µM
How it was run: as §1

[17] = Quantitative High-Throughput drug screen in 47 multiple myeloma cell lines against the NCATS MIPE library collection: LP1_DSMZ cell viability assay (AID 1918982); also: nearly all actives have a fitted effect of over 35% in size
How it was run: as §3

[18] = Quantitative High-Throughput drug screen in 47 multiple myeloma cell lines against the NCATS MIPE library collection: NCIH929_DSMZ cell viability assay (AID 1918978); also: nearly all actives have a fitted effect of over 35% in size
How it was run: as §3

[19] = Quantitative High-Throughput drug screen in 47 multiple myeloma cell lines against the NCATS MIPE library collection: KMS12PE_JCRB cell viability assay (AID 1918972); settings: KMS12PE myeloma viability, CellTiter-Glo ATP, 48 h; viability: at 45.8 µM (top of the series); also: nearly all actives have a fitted effect of over 30% in size
How it was run: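 Myeloma cells (500 per well) were exposed to MIPE 4.0 compounds by pin transfer and incubated 48 hours at 37C, 5% CO2. Viability was read as ATP by CellTiter-Glo luminescence, normalised to DMSO (100%) and media-only (0%) wells.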

Measured: Potency
Potency is read from the fitted curve at half-maximal effect.

CC1CCC(C(=O)N(c2cc(C#CC(C)(C)C)sc2C(=O)O)C2CCC(O)CC2)CC1 (centres undefined)
inconclusive: [1] 29.6 µM [cytotoxic, single point] | [3] 23.5 µM [cytotoxic, partial curve] | [4] 23.5 µM [cytotoxic, partial curve] | [6] 20.9 µM [cytotoxic, partial curve, poor fit] | [7] 1.87 µM [cytotoxic, partial curve, poor fit] | [8] 33.2 µM [rising, partial curve] | [9] 5.26 µM [cytotoxic, partial curve, poor fit] | [10] 23.5 µM [cytotoxic, partial curve, poor fit] | [11] 16.6 µM [cytotoxic, partial curve, poor fit] | [14] 13.2 µM [cytotoxic, partial curve, poor fit] | [15] 10.5 µM [cytotoxic, partial curve, poor fit]
inactive: [2] | [5] | [12] | [13]

CC(=O)OCC(=O)[C@@]1(O)CC[C@H]2[C@@H]3CCC4=CC(=O)C=C[C@]4(C)[C@@H]3[C@@H](O)C[C@@]21C
active: [6] 0.187 µM | [11] 2.35 µM
inactive: [2]
inconclusive: [1] 0.0332 µM [cytotoxic, full curve, poor fit] | [16] 0.166 µM [cytotoxic, full curve, poor fit] | [7] 11.8 µM [cytotoxic, single point] | [8] 1.18 µM [cytotoxic, partial curve, poor fit] | [14] 9.35 µM [cytotoxic, partial curve, poor fit] | [17] 0.132 µM [cytotoxic, full curve]

CC(=O)N1CCN(c2ccc(OCc3nn(C)c(C)c3-c3cccc4c(CCCOc5cc(C)c(Cl)c(C)c5)c(C(=O)O)n(Cc5cccnc5)c34)cc2)CC1
inconclusive: [1] 33.2 µM [cytotoxic, single point] | [2] 14.8 µM [cytotoxic, partial curve, poor fit] | [16] 33.2 µM [cytotoxic, single point] | [6] 37.2 µM [cytotoxic, single point] | [10] 0.0066 µM [rising, full curve, poor fit]
active: [7] 2.96 µM | [11] 20.9 µM
inactive: [12] | [17]

CNCCCC12CCC(c3ccccc31)c1ccccc12
active: [1] 20.9 µM | [3] 26.4 µM | [5] 20.9 µM | [8] 11.8 µM | [10] 20.9 µM | [12] 20.9 µM | [17] 20.9 µM
inconclusive: [2] 14.8 µM [cytotoxic, partial curve, poor fit] | [18] 23.5 µM [cytotoxic, single point]

Clc1ccc(C(Cn2ccnc2)OCc2c(Cl)cccc2Cl)c(Cl)c1 (centres undefined)
inconclusive: [1] 26.4 µM [cytotoxic, single point] | [3] 20.9 µM [cytotoxic, partial curve] | [7] 37.2 µM [cytotoxic, single point] | [10] 33.2 µM [cytotoxic, single point] | [11] 37.2 µM [cytotoxic, single point] | [18] 29.6 µM [cytotoxic, single point] | [12] 0.187 µM [rising, full curve, poor fit] | [13] 33.2 µM [cytotoxic, single point] | [14] 29.6 µM [cytotoxic, single point] | [17] 37.2 µM [cytotoxic, single point] | [15] 26.4 µM [cytotoxic, single point]
active: [2] 23.5 µM | [19] 14.8 µM | [8] 20.9 µM

CN(C[C@@H]1COCCO1)S(=O)(=O)Nc1ccc2ccc3ncc(-c4cnn(C)c4)cc3c(=O)c2c1
inconclusive: [1] 13.2 µM [cytotoxic, partial curve] | [2] 2.96 µM [cytotoxic, partial curve, poor fit] | [16] 0.001 µM [cytotoxic] | [5] 7.43 µM [cytotoxic, partial curve, poor fit] | [9] 0.0037 µM [cytotoxic, full curve, poor fit] | [10] 14.8 µM [cytotoxic, partial curve, poor fit] | [11] 20.9 µM [cytotoxic, partial curve] | [12] 13.2 µM [cytotoxic, partial curve, poor fit] | [15] 3.32 µM [cytotoxic, full curve, poor fit]
active: [7] 1.18 µM | [8] 5.26 µM | [13] 16.6 µM | [14] 18.7 µM

O=C(c1cncc(Br)c1)N1CCC(N2CCCC2)CC1
inconclusive: [2] 0.935 µM [cytotoxic, full curve, poor fit] | [4] 0.001 µM [cytotoxic] | [5] 0.0012 µM [cytotoxic, full curve, poor fit] | [6] 0.935 µM [cytotoxic, full curve, poor fit] | [12] 0.0019 µM [cytotoxic, full curve, poor fit] | [15] 7.43 µM [cytotoxic, partial curve, poor fit]
inactive: [1] | [3] | [19] | [7] | [11] | [13] | [14]

Cc1ccc(-n2[nH]c(C)c(N=Nc3cccc(-c4cccc(C(=O)O)c4)c3O)c2=O)cc1C
inconclusive: [1] 33.2 µM [cytotoxic, single point] | [16] 20.9 µM [cytotoxic, partial curve, poor fit] | [4] 26.4 µM [cytotoxic, single point] | [7] 0.0026 µM [cytotoxic, full curve, poor fit] | [8] 3.72 µM [rising, partial curve, poor fit] | [9] 23.5 µM [cytotoxic, single point] | [18] 29.6 µM [cytotoxic, single point] | [12] 37.2 µM [cytotoxic, single point] | [14] 33.2 µM [cytotoxic, single point] | [15] 10.5 µM [cytotoxic, partial curve, poor fit]
active: [2] 13.2 µM | [10] 20.9 µM | [17] 16.6 µM

Two entries drawn at random from those above:
Clc1ccc(C(Cn2ccnc2)OCc2c(Cl)cccc2Cl)c(Cl)c1 (centres undefined)
inconclusive: [1] 26.4 µM [cytotoxic, single point] | [3] 20.9 µM [cytotoxic, partial curve] | [7] 37.2 µM [cytotoxic, single point] | [10] 33.2 µM [cytotoxic, single point] | [11] 37.2 µM [cytotoxic, single point] | [18] 29.6 µM [cytotoxic, single point] | [12] 0.187 µM [rising, full curve, poor fit] | [13] 33.2 µM [cytotoxic, single point] | [14] 29.6 µM [cytotoxic, single point] | [17] 37.2 µM [cytotoxic, single point] | [15] 26.4 µM [cytotoxic, single point]
active: [2] 23.5 µM | [19] 14.8 µM | [8] 20.9 µM

CNCCCC12CCC(c3ccccc31)c1ccccc12
active: [1] 20.9 µM | [3] 26.4 µM | [5] 20.9 µM | [8] 11.8 µM | [10] 20.9 µM | [12] 20.9 µM | [17] 20.9 µM
inconclusive: [2] 14.8 µM [cytotoxic, partial curve, poor fit] | [18] 23.5 µM [cytotoxic, single point]

Remaining list, next part:

CC(S)C(=O)NCC(=O)O (centres undefined)
inconclusive: [3] 0.166 µM [rising, full curve, poor fit] | [6] 0.148 µM [rising, full curve] | [7] 0.935 µM [cytotoxic, partial curve, poor fit] | [8] 0.003 µM [cytotoxic, full curve, poor fit] | [9] 0.0037 µM [cytotoxic, full curve, poor fit] | [13] 3.72 µM [cytotoxic, partial curve, poor fit] | [17] 0.0013 µM [cytotoxic, full curve, poor fit]
inactive: [1] | [2] | [5] | [11] | [18] | [15]

O=c1ccc2ccc(O)c(O)c2o1
inactive: [15]
inconclusive: [1] 16.6 µM [cytotoxic, partial curve] | [2] 14.8 µM [cytotoxic, partial curve, poor fit] | [3] 4.18 µM [cytotoxic, full curve] | [19] 16.6 µM [cytotoxic, partial curve] | [8] 1.05 µM [cytotoxic, full curve, poor fit] | [9] 0.0019 µM [cytotoxic, full curve, poor fit] | [11] 37.2 µM [cytotoxic, single point] | [14] 13.2 µM [cytotoxic, partial curve, poor fit] | [17] 0.001 µM [cytotoxic]
active: [4] 3.32 µM | [6] 18.7 µM | [7] 16.6 µM | [13] 4.18 µM

CN1CCC(=C2c3ccccc3CC(=O)c3sccc32)CC1
inconclusive: [1] 37.2 µM [cytotoxic, single point] | [2] 37.2 µM [cytotoxic, single point] | [16] 23.5 µM [cytotoxic, single point] | [6] 0.0093 µM [rising, full curve] | [9] 37.2 µM [cytotoxic, single point] | [10] 0.0033 µM [rising, full curve] | [14] 37.2 µM [cytotoxic, single point]
inactive: [19] | [7] | [8] | [11]
active: [18] 4.18 µM
